According to the supplement of paper PMC3334620:
Over roughly 33,000 sequences, “E-score (-0.5 to 0.5)” has its median near -0.016; the highest 2% begin near 0.3. The list shows a part of the results.

What follows are sequences tested against T1, Yer184c (UniProt P39961) (assay: PBM E-score (8-mer binding enrichment) (E-score (-0.5 to 0.5)); higher = stronger / more preferred TF binding). Details: protein concentration: 100 nM; construct: GST-full length.
T1 sequence: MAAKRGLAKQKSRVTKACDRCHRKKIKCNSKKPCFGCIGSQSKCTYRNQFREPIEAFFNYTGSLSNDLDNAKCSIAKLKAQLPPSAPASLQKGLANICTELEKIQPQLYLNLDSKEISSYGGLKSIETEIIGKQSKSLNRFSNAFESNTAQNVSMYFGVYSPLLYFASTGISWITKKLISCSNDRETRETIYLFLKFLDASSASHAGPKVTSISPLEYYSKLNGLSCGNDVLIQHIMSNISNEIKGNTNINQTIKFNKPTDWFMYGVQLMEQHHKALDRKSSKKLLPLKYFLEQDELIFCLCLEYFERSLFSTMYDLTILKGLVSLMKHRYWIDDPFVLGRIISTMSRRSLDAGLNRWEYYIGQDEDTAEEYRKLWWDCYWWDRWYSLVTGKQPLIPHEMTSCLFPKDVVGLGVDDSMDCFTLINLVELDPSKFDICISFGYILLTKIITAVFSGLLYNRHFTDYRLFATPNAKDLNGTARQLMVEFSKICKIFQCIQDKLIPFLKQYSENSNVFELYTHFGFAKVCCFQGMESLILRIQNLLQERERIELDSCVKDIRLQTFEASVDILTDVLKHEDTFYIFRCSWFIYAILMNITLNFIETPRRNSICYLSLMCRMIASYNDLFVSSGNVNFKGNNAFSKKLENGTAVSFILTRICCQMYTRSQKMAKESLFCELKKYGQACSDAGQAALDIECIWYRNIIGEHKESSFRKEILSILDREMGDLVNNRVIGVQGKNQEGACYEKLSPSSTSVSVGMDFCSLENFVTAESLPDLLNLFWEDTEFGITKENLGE
How it was run: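 The E-score, a modified Wilcoxon-Mann-Whitney statistic, was computed by the Universal PBM Analysis Suite for every ungapped eight-base word pooled with its reverse complement. Scans behind it were normalised with masliner after bound GST-tagged yeast transcription factors were detected with fluorescent anti-GST. The proteins, at about 100-200 nM, had been applied to universal all-10-mer Agilent arrays made double-stranded by primer extension.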
With CTATCGAG the “PBM E-score” value was -0.0801.
For AGTTATCG, the “PBM E-score” value was 0.227.
With CGTGGGGC the “PBM E-score” value was -0.123.
In the case of AAGCTAAT, the “PBM E-score” value is reported as 0.162.
In the case of ACCAACAT, the “PBM E-score” value is reported as 0.133.
CTGTGTAC was tested, and the “PBM E-score” value was 0.179.
GCCGCCTA was tested, and the “PBM E-score” value was -0.265.
CAGGTGAA was tested, and the “PBM E-score” value was 0.061.
In the case of CAGATCCA, the “PBM E-score” value is reported as -0.0622.
CCAGCGAA was tested, and the “PBM E-score” value was -0.041.
ATGGGTAG was tested, and the “PBM E-score” value was -0.166.
In the case of CATAAGAC, the “PBM E-score” value is reported as -0.112.
TGACCGAA was tested, and the “PBM E-score” value was 0.228.
For ACTGTAAA, the “PBM E-score” value was 0.22.
With AAACCAAA the “PBM E-score” value was 0.258.
For GCCGACAC, the “PBM E-score” value was 0.144.
In the case of GAGGATTA, the “PBM E-score” value is reported as 0.0226.
In the case of GAACTTGC, the “PBM E-score” value is reported as 0.0842.
For CTTCGATA, the “PBM E-score” value was 0.139.
With ACCCGGAG the “PBM E-score” value was 0.348.
For GCAGCACA, the “PBM E-score” value was 0.0134.
GGCAGTAA was tested, and the “PBM E-score” value was -0.0215.
With AGTGTGCC the “PBM E-score” value was -0.00263.
For CGGGGGTA, the “PBM E-score” value was -0.0376.
With CCCGAAAA the “PBM E-score” value was 0.263.
In the case of AATGCTGT, the “PBM E-score” value is reported as -0.0607.
For AGGCTAAT, the “PBM E-score” value was -0.0256.
CACGCTTA was tested, and the “PBM E-score” value was -0.0305.
With CATGTACC the “PBM E-score” value was -0.257.
For GCCTGCCA, the “PBM E-score” value was -0.0615.
With ACTGACCG the “PBM E-score” value was -0.0172.
For CATCTTGA, the “PBM E-score” value was 0.0615.
For ATCTTGAG, the “PBM E-score” value was -0.0655.
GGGACGAA was tested, and the “PBM E-score” value was 0.0852.
In the case of CAGGGCGA, the “PBM E-score” value is reported as -0.0862.
GGAGATAC was tested, and the “PBM E-score” value was 0.124.
In the case of CGTGACAA, the “PBM E-score” value is reported as 0.0462.
In the case of CTTCCCGA, the “PBM E-score” value is reported as 0.148.
With AACGCATT the “PBM E-score” value was 0.157.
With AGTCATCA the “PBM E-score” value was -0.247.
With ATCGACTC the “PBM E-score” value was -0.2.
CGTCGCAG was tested, and the “PBM E-score” value was -0.00917.
For AGCCCAAC, the “PBM E-score” value was -0.27.
With GGACATTA the “PBM E-score” value was 0.0863.
With GGATGGTA the “PBM E-score” value was 0.108.
With ACGTAACC the “PBM E-score” value was -0.0261.
In the case of CAATGATG, the “PBM E-score” value is reported as -0.025.
CCCGGTGA was tested, and the “PBM E-score” value was 0.11.
With TGATAAAA the “PBM E-score” value was 0.178.
With GATTTCAA the “PBM E-score” value was 0.169.
With ATAGGACG the “PBM E-score” value was -0.238.
With AGCCACCT the “PBM E-score” value was -0.348.
In the case of GGCTACCA, the “PBM E-score” value is reported as -0.0791.
For ATGATTAG, the “PBM E-score” value was 0.101.
For CGTTACGA, the “PBM E-score” value was 0.156.
In the case of GGTTCTGA, the “PBM E-score” value is reported as 0.0515.
With GCATGCGA the “PBM E-score” value was 0.239.
With GCCGTGAC the “PBM E-score” value was 0.181.
For CCCCTCCC, the “PBM E-score” value was -0.192.
In the case of TAAAAGTA, the “PBM E-score” value is reported as 0.161.
AATCAAGA was tested, and the “PBM E-score” value was -0.00396.
ATGGCCCA was tested, and the “PBM E-score” value was 0.0557.
For TTCCAGAA, the “PBM E-score” value was 0.185.
With CTTACCCA the “PBM E-score” value was -0.149.
For CTGCAATA, the “PBM E-score” value was 0.111.
With AGGATCAG the “PBM E-score” value was -0.161.
GAGATACA was tested, and the “PBM E-score” value was 0.243.
For ACTTCAGC, the “PBM E-score” value was -0.0952.
With GGATTACC the “PBM E-score” value was 0.0944.
In the case of TGTGACAA, the “PBM E-score” value is reported as 0.0343.
In the case of GATAGGAA, the “PBM E-score” value is reported as 0.0411.
AAGCGTGG was tested, and the “PBM E-score” value was -0.138.
In the case of AGAACGCT, the “PBM E-score” value is reported as -0.202.
CCAATACG was tested, and the “PBM E-score” value was -0.127.
GACACGGA was tested, and the “PBM E-score” value was 0.277.
For AAGAAATT, the “PBM E-score” value was 0.346.
GACCTACA was tested, and the “PBM E-score” value was -0.115.
In the case of GATACAAA, the “PBM E-score” value is reported as 0.174.
AAAGACGT was tested, and the “PBM E-score” value was 0.0193.
In the case of CATGGTAG, the “PBM E-score” value is reported as -0.188.
With CAGCGGGG the “PBM E-score” value was -0.121.
ACAGCAAC was tested, and the “PBM E-score” value was 0.197.
With GTTTCCTA the “PBM E-score” value was 0.0325.
ATCCTAAG was tested, and the “PBM E-score” value was -0.0922.
For AAAACGGA, the “PBM E-score” value was 0.205.
For CGTATCAC, the “PBM E-score” value was -0.102.
In the case of CATTGTAC, the “PBM E-score” value is reported as -0.0961.
GATGGAAC was tested, and the “PBM E-score” value was 0.0222.
With GCCTAGTA the “PBM E-score” value was -0.0825.
AGAGTTAC was tested, and the “PBM E-score” value was -0.149.
With CATTATAA the “PBM E-score” value was 0.178.
AATGTTTG was tested, and the “PBM E-score” value was -0.0449.
In the case of AAGCATAG, the “PBM E-score” value is reported as -0.161.
With ACAGTTGG the “PBM E-score” value was -0.127.
